This note sets out measurements from patent US20230266303A1, “SYSTEM” (GTINVENT LIMITED, priority 2020, published 2023).

This data set concerns vesicular structures in dSH-SY5Y cells. Kind of data set: Immunogold TEM of cells exposed to dGAE-488 (vesicle diameter). It counts as cell-based, human.

As for “dGAE-488: dGAE covalently labelled with Alexa Fluor 488”, the vesicle diameter reads like this: (10 μM soluble dGAE-488, 24 h, buffer 303.7±20.0 nm) 448.4±22.5 nm; (figure legend: 1 μM soluble dGAE-488, 24 h, buffer 303.7±20.03) 478.4±22.48.
